Experimental data: publication PMC11109331
No constants are given. Whether binding was seen depends on the method and setting. In cells and extracts the contact can be indirect. Some binding calls cover weakened binding; strength is not graded here. Where a sequence is shown, tags or fusion partners need not be part of it.

Protein sequences, listed by entry. Tags and fused reporters are not part of them.
UniProt P11940: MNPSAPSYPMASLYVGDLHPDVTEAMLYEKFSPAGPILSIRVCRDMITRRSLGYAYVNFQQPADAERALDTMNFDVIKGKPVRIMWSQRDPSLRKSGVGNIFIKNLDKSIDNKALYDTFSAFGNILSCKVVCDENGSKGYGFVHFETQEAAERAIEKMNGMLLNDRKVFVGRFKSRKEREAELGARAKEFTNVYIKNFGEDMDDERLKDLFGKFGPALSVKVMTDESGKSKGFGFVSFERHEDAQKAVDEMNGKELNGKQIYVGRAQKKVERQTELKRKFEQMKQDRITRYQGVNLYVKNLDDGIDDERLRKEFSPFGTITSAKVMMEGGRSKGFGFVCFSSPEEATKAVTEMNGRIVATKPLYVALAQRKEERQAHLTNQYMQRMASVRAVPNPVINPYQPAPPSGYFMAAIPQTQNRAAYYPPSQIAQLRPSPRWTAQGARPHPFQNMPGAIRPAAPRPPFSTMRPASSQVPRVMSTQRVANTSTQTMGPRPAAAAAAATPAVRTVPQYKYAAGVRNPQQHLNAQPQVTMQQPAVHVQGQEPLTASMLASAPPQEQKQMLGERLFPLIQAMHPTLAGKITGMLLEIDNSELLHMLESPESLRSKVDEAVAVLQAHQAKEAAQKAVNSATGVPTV

Biological target: T1, Flag-MKRN3 (UniProt Q13064)
T1 sequence: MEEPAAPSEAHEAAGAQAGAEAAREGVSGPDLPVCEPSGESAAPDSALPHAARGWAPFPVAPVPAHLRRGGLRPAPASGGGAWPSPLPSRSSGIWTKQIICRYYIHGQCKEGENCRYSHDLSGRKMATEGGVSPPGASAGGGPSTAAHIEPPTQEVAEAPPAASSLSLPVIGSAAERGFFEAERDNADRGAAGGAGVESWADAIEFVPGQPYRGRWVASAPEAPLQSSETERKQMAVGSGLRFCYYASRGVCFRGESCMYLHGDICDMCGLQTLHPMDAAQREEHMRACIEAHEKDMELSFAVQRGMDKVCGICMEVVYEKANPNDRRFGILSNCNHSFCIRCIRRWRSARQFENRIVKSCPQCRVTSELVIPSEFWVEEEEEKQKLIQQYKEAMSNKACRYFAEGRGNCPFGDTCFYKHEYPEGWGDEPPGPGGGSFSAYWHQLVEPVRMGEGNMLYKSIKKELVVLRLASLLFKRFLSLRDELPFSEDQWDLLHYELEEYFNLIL
Experiment: co-IP; HepG2 cells infected with lentiviruses expressing Flag-MKRN3, with or without circDDX21 overexpression or circDDX21 shRNA; immunoprecipitation with anti-Flag antibody

binding: binds
Substance: PABPC1 (from UniProt P11940 1-636)
